Patent US20200375691A1, “PERACETIC ACID VAPOR STERILIZATION SYSTEM” (Medivators Inc., priority 2018, published 2020)

Test system: biological indicators (BIs)
Assay: Heated 90 cm bubbler runs, biological indicators in beakers, Tyvek and process challenge devices
Assay type: cell-based
Conditions: PAA Bubbler technology
Procedure: In this example embodiment of bubbler 430 and system 420, the Bubbler System was modified to accept a 50 mm outside diameter by 90 cm long glass tube (5 mm wall thickness) attached to a 417-liter REVOX system. During all experiments, 250 mL of REVOX PA liquid was measured by graduated cylinder and poured into the 90 cm Bubbler. The Bubbler System was connected to the 417-liter REVOX sterilization chamber referred to as an improved bubbler vessel configuration. Air was drawn into bubbler 430 using only the force of the vacuum within sterilization chamber. A simple on-off valve was used to control the flow of air through the bubbler, allowing for “blocks” to be created in a similar manner to a normal REVOX cycle. In several cases a flow meter and/or infrared vapor detector was used to monitor the output of the Bubbler. […]
The difference between heated and non-heated bubbler systems is the resulting humidity present in the chamber during the sterilization cycles. […] Maximum humidity levels were recorded by visual observation. […]
Cycle 254 tested a single 15-minute contact time on BIs in the chamber and within a Tyvek pouch. […] The bone matrix, however, is readily porous and should be easily sterilized under these conditions. […]

In the case of `CC(=O)OO` [PAA, peracetic acid], the “relative humidity at which PAA vapor is efficacious” value is reported as “greater than or equal to 80 % relative humidity”.
